Experimental findings from PMC4669748 are described below.

No constants are given. Whether binding was seen depends on the method and setting. A result given as binding can be weak or reduced; the word gives no strength. Sequences can lack the tags named with a protein.

In experiment [1] the target is GST fused with truncated AKT: N-terminal domain (hosts the PH domain). Kind of experiment: pull-down; GST pull-down with purified recombinant His-BTG3 and GST or GST fused with full-length or truncated AKT; both purified.
Experiment [2] concerns the target GST fused with truncated AKT: core domain (central region, hosts the kinase domain). Described as above.

B1: His-tagged, full-length BTG3 protein (protein, UniProt Q14201 1-252)
chain: MKNEIAAVVFFFTRLVRKHDKLKKEAVERFAEKLTLILQEKYKNHWYPEKPSKGQAYRCIRVNKFQRVDPDVLKACENSCILYSDLGLPKELTLWVDPCEVCCRYGEKNNAFIVASFENKDENKDEISRKVTRALDKVTSDYHSGSSSSDEETSKEMEVKPSSVTAAASPVYQISELIFPPLPMWHPLPRKKPGMYRGNGHQNHYPPPVPFGYPNQGRKNKPYRPIPVTWVPPPGMHCDRNHWINPHMLAPH
For the molecule B1, the binding entry in experiment [1] and in experiment [2] was “binds” throughout.
